# Measurements from the supplement of paper PMC8728848.
# The list shows a part of the results.
# B1: LysMD3 (Homo sapiens), Q7Z3D4 (protein)
# chain: MAGRHQNRSFPLPGVQSSGQVHAFGNCSDSDILEEDAEVYELRSRGKEKVRRSTSRDRLDDIIVLTKDIQEGDTLNAIALQYCCTVADIKRVNNLISDQDFFALRSIKIPVKKFSSLTETLCPPKGRQTSRHSSVQYSSEQQEILPANDSLAYSDSAGSFLKEVDRDIEQIVKCTDNKRENLNEVVSALTAQQMRFEPDNKNTQRKDPYYGADWGIG
# Experiments:
# Assay in all cases: glycan array binding signal (z-score within array); higher = stronger binding
# Settings in all cases: glycan notation: IUPAC condensed, linker removed
# [1] = biological target: Neu5Ac(a2-3)Gal6S(b1-4)[Fuc(a1-3)]GlcNAc
# Outline: (§1)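 The binding signal is a Z-score computed within each array. Data were drawn from 3228 arrays in the Consortium for Functional Glycomics database, restricted to those with a known protein sequence. Scores were averaged over arrays of the same protein sequence at different concentrations or buffers, and over linkers, and negative values can be taken as non-binding.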
# Neu5Ac(a2-3)GalNAc = biological target: Neu5Ac(a2-3)GalNAc
# Outline: as §1
# [2] = biological target: Neu5Ac(a2-3)GalNAc(b1-4)GlcNAc
# Outline: as §1
# [3] = biological target: Neu5Ac(a2-3)[GalNAc(b1-4)]Gal(b1-4)Glc
# Outline: as §1
# [4] = biological target: Neu5Ac(a2-3)[GalNAc(b1-4)]Gal(b1-4)GlcNAc
# Outline: as §1
# [5] = biological target: Neu5Ac(a2-3)[GalNAc(b1-4)]Gal(b1-4)GlcNAc(b1-3)GalNAc
# Outline: as §1
# [6] = biological target: Neu5Ac(a2-3)[Neu5Ac(a2-6)]GalNAc
# Outline: as §1
# Neu5Ac(a2-6)Gal = biological target: Neu5Ac(a2-6)Gal
# Outline: as §1
# [7] = biological target: Neu5Ac(a2-6)Gal(b1-3)GlcNAc(b1-3)[Gal(b1-4)GlcNAc(b1-6)]Gal(b1-4)Glc
# Outline: as §1
# Neu5Ac(a2-6)Gal(b1-4)Glc = biological target: Neu5Ac(a2-6)Gal(b1-4)Glc
# Outline: as §1
# [8] = biological target: Neu5Ac(a2-6)Gal(b1-4)GlcNAc
# Outline: as §1
# [9] = biological target: Neu5Ac(a2-6)Gal(b1-4)GlcNAc(b1-2)Man
# Outline: as §1
# [10] = biological target: Neu5Ac(a2-6)Gal(b1-4)GlcNAc(b1-2)Man(a1-3)Man(b1-4)GlcNAc(b1-4)GlcNAc
# Outline: as §1
# [11] = biological target: Neu5Ac(a2-6)Gal(b1-4)GlcNAc(b1-2)Man(a1-3)[Gal(b1-4)GlcNAc(b1-2)Man(a1-6)]Man(b1-4)GlcNAc(b1-4)GlcNAc
# Outline: as §1
# [12] = biological target: Neu5Ac(a2-6)Gal(b1-4)GlcNAc(b1-2)Man(a1-3)[GlcNAc(b1-4)][Neu5Ac(a2-6)Gal(b1-4)GlcNAc(b1-2)Man(a1-6)]Man(b1-4)GlcNAc(b1-4)GlcNAc
# Outline: as §1
# [13] = biological target: Neu5Ac(a2-6)Gal(b1-4)GlcNAc(b1-2)Man(a1-3)[Man(a1-6)]Man(b1-4)GlcNAc(b1-4)GlcNAc
# Outline: as §1
# [14] = biological target: Neu5Ac(a2-6)Gal(b1-4)GlcNAc(b1-2)Man(a1-3)[Neu5Ac(a2-3)Gal(b1-4)GlcNAc(b1-2)Man(a1-6)]Man(b1-4)GlcNAc(b1-4)GlcNAc
# Outline: as §1
# [15] = biological target: Neu5Ac(a2-6)Gal(b1-4)GlcNAc(b1-2)Man(a1-3)[Neu5Ac(a2-6)Gal(b1-4)GlcNAc(b1-2)Man(a1-6)]Man(b1-4)GlcNAc(b1-4)GlcNAc
# Outline: as §1
# [16] = biological target: Neu5Ac(a2-6)Gal(b1-4)GlcNAc(b1-2)Man(a1-3)[Neu5Ac(a2-6)Gal(b1-4)GlcNAc(b1-2)Man(a1-6)]Man(b1-4)GlcNAc(b1-4)[Fuc(a1-6)]GlcNAc
# Outline: as §1
# [17] = biological target: Neu5Ac(a2-6)Gal(b1-4)GlcNAc(b1-2)Man(a1-6)Man(b1-4)GlcNAc(b1-4)GlcNAc
# Outline: as §1
# [18] = biological target: Neu5Ac(a2-6)Gal(b1-4)GlcNAc(b1-2)Man(a1-6)[Gal(b1-4)GlcNAc(b1-2)Man(a1-3)]Man(b1-4)GlcNAc(b1-4)GlcNAc
# Outline: as §1
# [19] = biological target: Neu5Ac(a2-6)Gal(b1-4)GlcNAc(b1-2)Man(a1-6)[GlcNAc(b1-2)Man(a1-3)]Man(b1-4)GlcNAc(b1-4)GlcNAc
# Outline: as §1
# [20] = biological target: Neu5Ac(a2-6)Gal(b1-4)GlcNAc(b1-2)Man(a1-6)[Man(a1-3)]Man(b1-4)GlcNAc(b1-4)GlcNAc
# Outline: as §1
# [21] = biological target: Neu5Ac(a2-6)Gal(b1-4)GlcNAc(b1-2)[Neu5Ac(a2-6)Gal(b1-4)GlcNAc(b1-4)]Man(a1-3)[GlcNAc(b1-4)][Neu5Ac(a2-6)Gal(b1-4)GlcNAc(b1-2)[Neu5Ac(a2-6)Gal(b1-4)GlcNAc(b1-6)]Man(a1-6)]Man(b1-4)GlcNAc(b1-4)GlcNAc
# Outline: as §1
# [22] = biological target: Neu5Ac(a2-6)Gal(b1-4)GlcNAc(b1-2)[Neu5Ac(a2-6)Gal(b1-4)GlcNAc(b1-4)]Man(a1-3)[GlcNAc(b1-4)][Neu5Ac(a2-6)Gal(b1-4)GlcNAc(b1-4)Man(a1-6)]Man(b1-4)GlcNAc(b1-4)GlcNAc
# Outline: as §1
# [23] = biological target: Neu5Ac(a2-6)Gal(b1-4)GlcNAc(b1-2)[Neu5Ac(a2-6)Gal(b1-4)GlcNAc(b1-6)]Man(a1-6)[Neu5Ac(a2-6)Gal(b1-4)GlcNAc(b1-2)Man(a1-3)][GlcNAc(b1-4)]Man(b1-4)GlcNAc(b1-4)GlcNAc
# Outline: as §1
# [24] = biological target: Neu5Ac(a2-6)Gal(b1-4)GlcNAc(b1-3)Gal(b1-3)GlcNAc
# Outline: as §1
# [25] = biological target: Neu5Ac(a2-6)Gal(b1-4)GlcNAc(b1-3)Gal(b1-4)GlcNAc
# Outline: as §1
# [26] = biological target: Neu5Ac(a2-6)Gal(b1-4)GlcNAc(b1-3)Gal(b1-4)GlcNAc(b1-2)Man(a1-3)[Neu5Ac(a2-6)Gal(b1-4)GlcNAc(b1-3)Gal(b1-4)GlcNAc(b1-2)Man(a1-6)]GalNAc
# Outline: as §1
# [27] = biological target: Neu5Ac(a2-6)Gal(b1-4)GlcNAc(b1-3)Gal(b1-4)GlcNAc(b1-3)Gal(b1-4)GlcNAc
# Outline: as §1
# [28] = biological target: Neu5Ac(a2-6)Gal(b1-4)GlcNAc(b1-3)Gal(b1-4)GlcNAc(b1-3)Gal(b1-4)GlcNAc(b1-2)Man(a1-3)[Neu5Ac(a2-6)Gal(b1-4)GlcNAc(b1-3)Gal(b1-4)GlcNAc(b1-3)Gal(b1-4)GlcNAc(b1-2)Man(a1-6)]GalNAc
# Outline: as §1
# [29] = biological target: Neu5Ac(a2-6)Gal(b1-4)GlcNAc(b1-3)Gal(b1-4)GlcNAc(b1-3)GalNAc
# Outline: as §1
# [30] = biological target: Neu5Ac(a2-6)Gal(b1-4)GlcNAc(b1-3)Gal(b1-4)GlcNAc(b1-3)[Neu5Ac(a2-6)Gal(b1-4)GlcNAc(b1-3)Gal(b1-4)GlcNAc(b1-6)]GalNAc
# Outline: as §1
# [31] = biological target: Neu5Ac(a2-6)Gal(b1-4)GlcNAc(b1-3)Gal(b1-4)GlcNAc(b1-6)[Gal(b1-3)]GalNAc
# Outline: as §1
# [32] = biological target: Neu5Ac(a2-6)Gal(b1-4)GlcNAc(b1-3)Gal(b1-4)[Fuc(a1-3)]GlcNAc(b1-3)Gal(b1-4)[Fuc(a1-3)]GlcNAc
# Outline: as §1
# [33] = biological target: Neu5Ac(a2-6)Gal(b1-4)GlcNAc(b1-3)GalNAc
# Outline: as §1
# [34] = biological target: Neu5Ac(a2-6)Gal(b1-4)GlcNAc(b1-3)[Neu5Ac(a2-6)Gal(b1-4)GlcNAc(b1-6)]GalNAc
# Outline: as §1
# [35] = biological target: Neu5Ac(a2-6)Gal(b1-4)GlcNAc(b1-6)GalNAc
# Outline: as §1
# [36] = biological target: Neu5Ac(a2-6)Gal(b1-4)GlcNAc(b1-6)[Gal(b1-3)GlcNAc(b1-3)]Gal(b1-4)Glc
# Outline: as §1
# [37] = biological target: Neu5Ac(a2-6)Gal(b1-4)GlcNAc(b1-6)[Gal(b1-3)]GalNAc
# Outline: as §1
# [38] = biological target: Neu5Ac(a2-6)Gal(b1-4)GlcNAc6S
# Outline: as §1
# Neu5Ac(a2-6)GalNAc = biological target: Neu5Ac(a2-6)GalNAc
# Outline: as §1
# [39] = biological target: Neu5Ac(a2-6)GalNAc(b1-4)GlcNAc
# Outline: as §1
# [40] = biological target: Neu5Ac(a2-6)GalNAc(b1-4)GlcNAc6S
# Outline: as §1
# [41] = biological target: Neu5Ac(a2-6)GlcNAc(b1-4)GlcNAc
# Outline: as §1
binder,measurement,setting,value
B1,glycan array binding signal (z-score),[1],-0.291
same,glycan array binding signal (z-score),Neu5Ac(a2-3)GalNAc,0.613
same,glycan array binding signal (z-score),[2],-0.11
same,glycan array binding signal (z-score),[3],-0.096
same,glycan array binding signal (z-score),[4],0.062
same,glycan array binding signal (z-score),[5],-0.66
same,glycan array binding signal (z-score),[6],-0.098
same,glycan array binding signal (z-score),Neu5Ac(a2-6)Gal,-0.97
same,glycan array binding signal (z-score),[7],-0.343
same,glycan array binding signal (z-score),Neu5Ac(a2-6)Gal(b1-4)Glc,-1.03
same,glycan array binding signal (z-score),[8],-0.353
same,glycan array binding signal (z-score),[9],-0.362
same,glycan array binding signal (z-score),[10],-1.22
same,glycan array binding signal (z-score),[11],-0.25
same,glycan array binding signal (z-score),[12],0.114
same,glycan array binding signal (z-score),[13],-1.15
same,glycan array binding signal (z-score),[14],-0.438
same,glycan array binding signal (z-score),[15],0.296
same,glycan array binding signal (z-score),[16],-1.29
same,glycan array binding signal (z-score),[17],-0.395
same,glycan array binding signal (z-score),[18],-0.492
same,glycan array binding signal (z-score),[19],-0.319
same,glycan array binding signal (z-score),[20],-0.631
same,glycan array binding signal (z-score),[21],-0.178
same,glycan array binding signal (z-score),[22],0.176
same,glycan array binding signal (z-score),[23],1.03
same,glycan array binding signal (z-score),[24],-0.372
same,glycan array binding signal (z-score),[25],-0.186
same,glycan array binding signal (z-score),[26],-0.611
same,glycan array binding signal (z-score),[27],0.502
same,glycan array binding signal (z-score),[28],0.078
same,glycan array binding signal (z-score),[29],-0.775
same,glycan array binding signal (z-score),[30],-0.5
same,glycan array binding signal (z-score),[31],-0.94
same,glycan array binding signal (z-score),[32],-0.545
same,glycan array binding signal (z-score),[33],-0.316
same,glycan array binding signal (z-score),[34],-0.88
same,glycan array binding signal (z-score),[35],-0.736
same,glycan array binding signal (z-score),[36],0.004
same,glycan array binding signal (z-score),[37],-0.706
same,glycan array binding signal (z-score),[38],-0.863
same,glycan array binding signal (z-score),Neu5Ac(a2-6)GalNAc,-0.582
same,glycan array binding signal (z-score),[39],-0.484
same,glycan array binding signal (z-score),[40],-0.178
same,glycan array binding signal (z-score),[41],-0.05

# Exported with bars between the fields: part of the list above.
binder | measurement | setting | value
B1 | glycan array binding signal (z-score) | Neu5Ac(a2-3)GalNAc | 0.613
same | glycan array binding signal (z-score) | [4] | 0.062
same | glycan array binding signal (z-score) | [6] | -0.098
same | glycan array binding signal (z-score) | Neu5Ac(a2-6)Gal | -0.97
same | glycan array binding signal (z-score) | [7] | -0.343
same | glycan array binding signal (z-score) | Neu5Ac(a2-6)Gal(b1-4)Glc | -1.03
same | glycan array binding signal (z-score) | [8] | -0.353
same | glycan array binding signal (z-score) | [10] | -1.22
same | glycan array binding signal (z-score) | [12] | 0.114
same | glycan array binding signal (z-score) | [17] | -0.395
same | glycan array binding signal (z-score) | [27] | 0.502
same | glycan array binding signal (z-score) | [38] | -0.863
same | glycan array binding signal (z-score) | [40] | -0.178
